No signal at the amounts used counts as a negative. Where a protein sequence is shown, tags need not be part of it.
Biological target: T1, HincII restriction endonuclease (UniProt P17743)
T1 sequence (looked up, limits assumed): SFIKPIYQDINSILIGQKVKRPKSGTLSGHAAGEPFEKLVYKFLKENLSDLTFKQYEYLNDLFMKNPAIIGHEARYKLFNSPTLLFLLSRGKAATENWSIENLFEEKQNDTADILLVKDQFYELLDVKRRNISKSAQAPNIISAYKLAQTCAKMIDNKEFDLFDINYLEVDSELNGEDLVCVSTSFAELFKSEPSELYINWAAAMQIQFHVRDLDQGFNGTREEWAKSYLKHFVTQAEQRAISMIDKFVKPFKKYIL
Assay: enzyme reaction in vitro
Settings: single-stranded signal primer not cleaved; no cleavage product without target; purified native protein; protein details: New England Biolabs; label: 5'-32P; single-stranded DNA

GTACGTCTATGTCAACATCCGTATGGTGGATAACGTCTTTCA [HincII-site signal primer, single-stranded 42-mer]
activity on this sequence: not active
